Earlier results as cited in patent publication US20100317706A1, “HNF4alpha MODULATORS AND METHODS OF USE” (Bumham Institute for Medical Research, priority 2009, published 2010).
Some results were stated once for a whole list of compounds, not compound by compound.

Conditions: hoFH patients, maximal dose of statins, 80 mg/day; cited from earlier work

CC(C)c1c(C(=O)Nc2ccccc2)c(-c2ccccc2)c(-c2ccc(F)cc2)n1CC[C@@H](O)C[C@@H](O)CC(=O)O [atorvastatin]
mean LDL-C reduction: less than 20%
